The target in test [1] is T1, murine COX-2 (mCOX-2) enzyme (murine, UniProt Q05769 18-604).
T1 sequence (looked up): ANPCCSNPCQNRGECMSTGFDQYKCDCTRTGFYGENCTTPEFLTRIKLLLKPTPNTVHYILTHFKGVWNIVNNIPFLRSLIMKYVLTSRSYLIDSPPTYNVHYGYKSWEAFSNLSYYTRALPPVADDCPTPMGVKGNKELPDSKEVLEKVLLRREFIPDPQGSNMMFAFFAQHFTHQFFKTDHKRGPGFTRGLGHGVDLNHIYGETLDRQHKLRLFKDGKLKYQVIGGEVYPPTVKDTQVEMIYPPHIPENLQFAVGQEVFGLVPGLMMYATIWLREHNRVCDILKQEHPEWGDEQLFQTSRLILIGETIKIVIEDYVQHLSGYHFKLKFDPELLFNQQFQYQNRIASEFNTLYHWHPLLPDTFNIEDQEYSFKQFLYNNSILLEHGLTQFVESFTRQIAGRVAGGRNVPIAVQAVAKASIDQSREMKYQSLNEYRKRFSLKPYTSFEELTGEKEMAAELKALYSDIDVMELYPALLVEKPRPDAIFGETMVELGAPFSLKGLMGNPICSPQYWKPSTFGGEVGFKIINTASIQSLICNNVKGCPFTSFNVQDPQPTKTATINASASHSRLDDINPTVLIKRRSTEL
The test can be described thus: fluorescence microscopy of KLA-activated (COX-2-expressing) RAW264.7 cells with 200 nM A7-NIR664; non-activated cells without COX-2 were not labeled.

The target in test [2] is T1, murine COX-2 (mCOX-2) enzyme. Put plainly: summary statement in the abstract of Example 1.
The target is the same in test [3]. Put plainly: phage display selection and MST, as told in the discussion of Example 1.

No constants are given. Whether binding was seen depends on the method and setting. Some binding calls cover weakened binding; strength is not graded here.

B1: A7-NIR664 nanobody conjugate (VHH)
VHH: QVQLQESGGGLVQPGGSLKLSCAASGSIFSINVMGWYRQAPGKQRELVATITSGGTTNYADSVKGRFTISRDNAKDTLYLQMNSLKPEDTAVYYCNAKDLGGSSWFSEFDYWGQGTQVTVGP
modifications: NIR664 fluorophore conjugated to the N-terminus end
For B1, the binding result in test [1] and in test [2] was “binds” each time.

B2: A7 nanobody (VHH)
VHH: QVQLQESGGGLVQPGGSLKLSCAASGSIFSINVMGWYRQAPGKQRELVATITSGGTTNYADSVKGRFTISRDNAKDTLYLQMNSLKPEDTAVYYCNAKDLGGSSWFSEFDYWGQGTQVTVGP
notes: Alpaca-derived VHH expressed in E. coli and purified by SEC; The stated molecular weight is 15.24 kDa; also called native A7 nanobody clone
As for B2, in test [3], the binding result was “binds”.

The values above are taken from patent US20250242062A1 (VANDERBILT UNIVERSITY, published 2025).
